From patent publication US5639887A, “MDR reversal agents” (priority 1995, dated 1997)
Where “and” joins values, the source holds several entries; their conditions need not be identical. Equal entries are not always repeated. At least one read-out could not be matched to a standard name with certainty.

Assays:
[1] = system: human epidermoid carcinoma KB/8.5; assay: In vivo evaluation of MDR-1 reversal agents against human epidermoid carcinoma KB/8.5 implanted SC in athymic nude mice; design: species or system human (tumor in athymic nude mice)
Description: The multiple drug resistant human epidermoid carcinoma KB/8.5 is propagated in medium containing colchicine (10 nanograms/ml) to maintain drug resistance. Colchicine is removed from the medium, for two cell passages, prior to subcutaneous (SC) implant of 8×10^6 KB/8.5 tumor cells into athymic "nude" mice (Harlan Sprague Dawley). […] Individual mouse tumor mass and mean tumor mass for each treatment group is determined on Day +14 and Day +21 of the test period. For each treatment group, the Relative Tumor Growth, RTG, is calculated as follows: [formula]
Statistical analysis of Log Relative Tumor Growth is carried out using the Student t-test. Transformation of the data from absolute mean tumor mass (mgs tumor mass) to Log Relative Tumor Growth prior to statistical analysis has two beneficial effects:
1) it corrects the data for differences in mean tumor mass of the different treatment groups at the start of the test period (Day 0); and
2) the Log transformation of the data more adequately reflects the exponential growth pattern of the SC tumors and makes the use of the Student t-test more appropriate.

[2] = system: bisantrene-resistant human ovarian carcinoma cells S1-B1-20 (OVCAR-3 subclone); assay: Screening assay for reversal agents: Difference Score with/without 20 μM bisantrene; format: cell-based; conditions: alone vs with 20 μM bisantrene, 3 days, difference in % cell survival; for Difference Score at 1 microM: test agent 1 microM; for Difference Score at 10 microM: test agent 10 microM; for Difference Score at 20 microM: test agent 20 microM
Description: Such cells are sorted by a fluorescent activated cell sorter (FACS; Becton Dickinson Model 440).
Cells, prepared by trypsinization, are plated at 20,000 cells/well in media with and without bisantrene. Then, test agents at varying concentrations are added to the cells. […] Completed plates are incubated for 3 days at 37° C. in a moisturized 7% CO2 atmosphere. […] Dye content/well is read at 540 nm in a microtiter reader. Values are electronically processed, % cell survival compared to untreated cells is computed, and the results are expressed as the difference between these values. Experiments are run in the presence of the test agent alone and the test agent in combination with 20 μM bisantrene. The Difference Score between those two experiments is reported below for 3 different concentrations of test agent.

SMILES | Relative Tumor Growth Day 21 ([1]; doxorubicin 8 mg/kg IV + compound 100 mg/kg/dose SC at -2 h and +2 h, listed as Ex-41) | Difference Score at 1 microM [2] | Difference Score at 10 microM [2] | Difference Score at 20 microM [2] | Relative Tumor Growth Day 21 ([1]; doxorubicin 8 mg/kg IV + compound 25 mg/kg/dose SC at -2 h and +2 h, listed as Ex-62) | Relative Tumor Growth Day 21 ([1]; doxorubicin 8 mg/kg IV + compound 200 mg/kg/dose SC at -2 h and +2 h, listed as Ex-62)
COc1ccc(C(CCCCCN2CCc3cc(OC)c(OC)cc3C2)Sc2ccc(C)cc2)cc1OC (stereo not drawn) [Example 41, 2-[6-(3,4-Dimethoxyphenvl]-6-[(4-methylphenyl)thio]-hexyl]-1,2,3,4-tetrahydro-6,7-dimethoxyisoquinoline] | 6.28 and 10.39 |  |  |  |  | 
COc1cc2c(cc1OC)CN(CCCCCCC(Sc1ccc(C)cc1)c1ccc(OC)c(O[Si](C)(C)C(C)(C)C)c1)CC2 (stereo not drawn) [Example 71] |  | 3 | 52 | 79 |  | 
COc1cc2c(cc1O[Si](C)(C)C(C)(C)C)CNCC2 [Example 28, 7-[[(1,1-Dimethylethyl)dimethylsilyl]oxy]-1,2,3,4-tetrahydro-6-methoxyisoquinoline] |  | 95 | 68 | 17 |  | 
COc1ccc(C(C#N)(CCCCCN2CCc3cc(OC)c(O[Si](C)(C)C(C)(C)C)cc3C2)Sc2ccc(C)cc2)cc1OC (stereo not drawn) [Example 29, α-(3,4-Dimethoxyphenyl)-7-[[(1,1-dimethylethyl)di-methylsilvl]oxy]-3,4-dihydro-6-methoxy-α-[(4-methyl-phenyl)thio]-2(1H)-isoquinolineheptanenitrile] |  | 0 | 40 | 47 |  | 
COc1ccc(C(C#N)(CCCCCN2CCc3cc(OC)c(OC)cc3C2)SC2CCCCC2)cc1OC (stereo not drawn) [Example 62, α-(Cyclohexylthio)-α-(3,4-dimethoxyphenyl)-3,4-dihydro6,7-dimethoxy-2(1H)-isoquinolineheptane nitrile] |  |  |  |  | 12.17 and 9.09 | 8.57 and 7.55
